Source: paper PMC6316800
These are yes or no findings as the source states them, for the method shown. In cells and extracts the contact can be indirect. These calls come from enrichment with a bait or labelling near it, and not all partners need be listed.

The chains behind the UniProt entries cited, without tags or fusion partners.
UniProt P03496: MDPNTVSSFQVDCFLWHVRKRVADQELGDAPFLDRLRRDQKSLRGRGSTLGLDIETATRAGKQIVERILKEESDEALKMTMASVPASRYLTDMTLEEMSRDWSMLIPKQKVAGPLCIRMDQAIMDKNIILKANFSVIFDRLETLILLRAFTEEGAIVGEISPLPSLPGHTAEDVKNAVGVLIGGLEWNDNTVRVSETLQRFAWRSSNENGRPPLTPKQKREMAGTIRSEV

Molecular target: Influenza A virus non-structural protein 1 (NS1), strain A/Puerto Rico/8/1934(H1N1) (Influenza A virus A/Puerto Rico/8/1934(H1N1)) (UniProt P03496)
Experiment: affinity purification with mass spectrometry

Binder	binding
UPF0027 protein C22orf28 (protein, UniProt Q9Y3I0 1-505) MSRSYNDELQFLEKINKNCWRIKKGFVPNMQVEGVFYVNDALEKLMFEELRNACRGGGVGGFLPAMKQIGNVAALPGIVHRSIGLPDVHSGYGFAIGNMAAFDMNDPEAVVSPGGVGFDINCGVRLLRTNLDESDVQPVKEQLAQAMFDHIPVGVGSKGVIPMNAKDLEEALEMGVDWSLREGYAWAEDKEHCEEYGRMLQADPNKVSARAKKRGLPQLGTLGAGNHYAEIQVVDEIFNEYAAKKMGIDHKGQVCVMIHSGSRGLGHQVATDALVAMEKAMKRDKIIVNDRQLACARIASPEGQDYLKGMAAAGNYAWVNRSSMTFLTRQAFAKVFNTTPDDLDLHVIYDVSHNIAKVEQHVVDGKERTLLVHRKGSTRAFPPHHPLIAVDYQLTGQPVLIGGTMGTCSYVLTGTEQGMTETFGTTCHGAGRALSRAKSRRNLDFQDVLDKLADMGIAIRVASPKLVMEEAPESYKNVTDVVNTCHDAGISKKAIKLRPIAVIKG	binds
Ankycorbin (protein, UniProt Q9P0K7 1-980) MKSLKAKFRKSDTNEWNKNDDRLLQAVENGDAEKVASLLGKKGASATKHDSEGKTAFHLAAAKGHVECLRVMITHGVDVTAQDTTGHSALHLAAKNSHHECIRKLLQSKCPAESVDSSGKTALHYAAAQGCLQAVQILCEHKSPINLKDLDGNIPLLLAVQNGHSEICHFLLDHGADVNSRNKSGRTALMLACEIGSSNAVEALIKKGADLNLVDSLGYNALHYSKLSENAGIQSLLLSKISQDADLKTPTKPKQHDQVSKISSERSGTPKKRKAPPPPISPTQLSDVSSPRSITSTPLSGKESVFFAEPPFKAEISSIRENKDRLSDSTTGADSLLDISSEADQQDLLSLLQAKVASLTLHNKELQDKLQAKSPKEAEADLSFDSYHSTQTDLGPSLGKPGETSPPDSKSSPSVLIHSLGKSTTDNDVRIQQLQEILQDLQKRLESSEAERKQLQVELQSRRAELVCLNNTEISENSSDLSQKLKETQSKYEEAMKEVLSVQKQMKLGLVSPESMDNYSHFHELRVTEEEINVLKQDLQNALEESERNKEKVRELEEKLVEREKGTVIKPPVEEYEEMKSSYCSVIENMNKEKAFLFEKYQEAQEEIMKLKDTLKSQMTQEASDEAEDMKEAMNRMIDELNKQVSELSQLYKEAQAELEDYRKRKSLEDVTAEYIHKAEHEKLMQLTNVSRAKAEDALSEMKSQYSKVLNELTQLKQLVDAQKENSVSITEHLQVITTLRTAAKEMEEKISNLKEHLASKEVEVAKLEKQLLEEKAAMTDAMVPRSSYEKLQSSLESEVSVLASKLKESVKEKEKVHSEVVQIRSEVSQVKREKENIQTLLKSKEQEVNELLQKFQQAQEELAEMKRYAESSSKLEEDKDKKINEMSKEVTKLKEALNSLSQLSYSTSSSKRQSQQLEALQQQVKQLQNQLAECKKQHQEVISVYRMHLLYAVQGQMDEDVQKVLKQILTMCKNQSQKK	binds
RNA-binding protein 14 (protein, UniProt Q96PK6 1-669) MKIFVGNVDGADTTPEELAALFAPYGTVMSCAVMKQFAFVHMRENAGALRAIEALHGHELRPGRALVVEMSRPRPLNTWKIFVGNVSAACTSQELRSLFERRGRVIECDVVKDYAFVHMEKEADAKAAIAQLNGKEVKGKRINVELSTKGQKKGPGLAVQSGDKTKKPGAGDTAFPGTGGFSATFDYQQAFGNSTGGFDGQARQPTPPFFGRDRSPLRRSPPRASYVAPLTAQPATYRAQPSVSLGAAYRAQPSASLGVGYRTQPMTAQAASYRAQPSVSLGAPYRGQLASPSSQSAAASSLGPYGGAQPSASALSSYGGQAAAASSLNSYGAQGSSLASYGNQPSSYGAQAASSYGVRAAASSYNTQGAASSLGSYGAQAASYGAQSAASSLAYGAQAASYNAQPSASYNAQSAPYAAQQAASYSSQPAAYVAQPATAAAYASQPAAYAAQATTPMAGSYGAQPVVQTQLNSYGAQASMGLSGSYGAQSAAAATGSYGAAAAYGAQPSATLAAPYRTQSSASLAASYAAQQHPQAAASYRGQPGNAYDGAGQPSAAYLSMSQGAVANANSTPPPYERTRLSPPRASYDDPYKKAVAMSKRYGSDRRLAELSDYRRLSESQLSFRRSPTKSSLDYRRLPDAHSDYARYSGSYNDYLRAAQMHSGYQRRM	binds
Putative RNA-binding protein 15 (protein, UniProt Q96T37 1-977) MRTAGRDPVPRRSPRWRRAVPLCETSAGRRVTQLRGDDLRRPATMKGKERSPVKAKRSRGGEDSTSRGERSKKLGGSGGSNGSSSGKTDSGGGSRRSLHLDKSSSRGGSREYDTGGGSSSSRLHSYSSPSTKNSSGGGESRSSSRGGGGESRSSGAASSAPGGGDGAEYKTLKISELGSQLSDEAVEDGLFHEFKRFGDVSVKISHLSGSGSGDERVAFVNFRRPEDARAAKHARGRLVLYDRPLKIEAVYVSRRRSRSPLDKDTYPPSASVVGASVGGHRHPPGGGGGQRSLSPGGAALGYRDYRLQQLALGRLPPPPPPPLPRDLERERDYPFYERVRPAYSLEPRVGAGAGAAPFREVDEISPEDDQRANRTLFLGNLDITVTESDLRRAFDRFGVITEVDIKRPSRGQTSTYGFLKFENLDMSHRAKLAMSGKIIIRNPIKIGYGKATPTTRLWVGGLGPWVPLAALAREFDRFGTIRTIDYRKGDSWAYIQYESLDAAHAAWTHMRGFPLGGPDRRLRVDFADTEHRYQQQYLQPLPLTHYELVTDAFGHRAPDPLRGARDRTPPLLYRDRDRDLYPDSDWVPPPPPVRERSTRTAATSVPAYEPLDSLDRRRDGWSLDRDRGDRDLPSSRDQPRKRRLPEESGGRHLDRSPESDRPRKRHCAPSPDRSPELSSSRDRYNSDNDRSSRLLLERPSPIRDRRGSLEKSQGDKRDRKNSASAERDRKHRTTAPTEGKSPLKKEDRSDGSAPSTSTASSKLKSPSQKQDGGTAPVASASPKLCLAWQGMLLLKNSNFPSNMHLLQGDLQVASSLLVEGSTGGKVAQLKITQRLRLDQPKLDEVTRRIKVAGPNGYAILLAVPGSSDSRSSSSSAASDTATSTQRPLRNLVSYLKQKQAAGVISLPVGGNKDKENTGVLHAFPPCEFSQQFLDSPAKALAKSEEDYLVMIIVRGFGFQIGVRYENKKRENLALTLL	binds
RNA-binding protein 28 (protein, UniProt Q9NW13 1-759) MAGLTLFVGRLPPSARSEQLEELFSQVGPVKQCFVVTEKGSKACRGFGYVTFSMLEDVQRALKEITTFEGCKINVTVAKKKLRNKTKEKGKNENSECPKKEPKAKKAKVADKKARLIIRNLSFKCSEDDLKTVFAQFGAVLEVNIPRKPDGKMRGFGFVQFKNLLEAGKALKGMNMKEIKGRTVAVDWAVAKDKYKDTQSVSAIGEEKSHESKHQESVKKKGREEEDMEEEENDDDDDDDDEEDGVFDDEDEEEENIESKVTKPVQIQKRAVKRPAPAKSSDHSEEDSDLEESDSIDDGEELAQSDTSTEEQEDKAVQVSNKKKRKLPSDVNEGKTVFIRNLSFDSEEEELGELLQQFGELKYVRIVLHPDTEHSKGCAFAQFMTQEAAQKCLLAASPENEAGGLKLDGRQLKVDLAVTRDEAAKLQTTKVKKPTGTRNLYLAREGLIRAGTKAAEGVSAADMAKRERFELLKHQKLKDQNIFVSRTRLCLHNLPKAVDDKQLRKLLLSATSGEKGVRIKECRVMRDLKGVHGNMKGQSLGYAFAEFQEHEHALKALRLINNNPEIFGPLKRPIVEFSLEDRRKLKMKELRIQRSLQKMRSKPATGEPQKGQPEPAKDQQQKAAQHHTEEQSKVPPEQKRKAGSTSWTGFQTKAEVEQVELPDGKKRRKVLALPSHRGPKIRLRDKGKVKPVHPKKPKPQINQWKQEKQQLSSEQVSRKKAKGNKTETRFNQLVEQYKQKLLGPSKGAPLAKRSKWFDS	binds
RNA-binding protein 34 (protein, UniProt P42696 1-430) MALEGMSKRKRKRSVQEGENPDDGVRGSPPEDYRLGQVASSLFRGEHHSRGGTGRLASLFSSLEPQIQPVYVPVPKQTIKKTKRNEEEESTSQIERPLSQEPAKKVKAKKKHTNAEKKLADRESALASADLEEEIHQKQGQKRKNSQPGVKVADRKILDDTEDTVVSQRKKIQINQEEERLKNERTVFVGNLPVTCNKKKLKSFFKEYGQIESVRFRSLIPAEGTLSKKLAAIKRKIHPDQKNINAYVVFKEESAATQALKRNGAQIADGFRIRVDLASETSSRDKRSVFVGNLPYKVEESAIEKHFLDCGSIMAVRIVRDKMTGIGKGFGYVLFENTDSVHLALKLNNSELMGRKLRVMRSVNKEKFKQQNSNPRLKNVSKPKQGLNFTSKTAEGHPKSLFIGEKAVLLKTKKKGQKKSGRPKKQRKQK	binds
Ribosome production factor 1 (protein, UniProt Q9H9Y2 1-349) MAKAGDKSSSSGKKSLKRKAAAEELQEAAGAGDGATENGVQPPKAAAFPPGFSISEIKNKQRRHLMFTRWKQQQRKEKLAAKKKLKKEREALGDKAPPKPVPKTIDNQRVYDETTVDPNDEEVAYDEATDEFASYFNKQTSPKILITTSDRPHGRTVRLCEQLSTVIPNSHVYYRRGLALKKIIPQCIARDFTDLIVINEDRKTPNGLILSHLPNGPTAHFKMSSVRLRKEIKRRGKDPTEHIPEIILNNFTTRLGHSIGRMFASLFPHNPQFIGRQVATFHNQRDYIFFRFHRYIFRSEKKVGIQELGPRFTLKLRSLQKGTFDSKYGEYEWVHKPREMDTSRRKFHL	binds
Ribosome production factor 2 homolog (protein, UniProt Q9H7B2 1-306) MDTLDRVVKPKTKRAKRFLEKREPKLNENIKNAMLIKGGNANATVTKVLKDVYALKKPYGVLYKKKNITRPFEDQTSLEFFSKKSDCSLFMFGSHNKKRPNNLVIGRMYDYHVLDMIELGIENFVSLKDIKNSKCPEGTKPMLIFAGDDFDVTEDYRRLKSLLIDFFRGPTVSNIRLAGLEYVLHFTALNGKIYFRSYKLLLKKSGCRTPRIELEEMGPSLDLVLRRTHLASDDLYKLSMKMPKALKPKKKKNISHDTFGTTYGRIHMQKQDLSKLQTRKMKGLKKRPAERITEDHEKKSKRIKKN	binds
Cirhin (protein, UniProt Q969X6 1-686) MGEFKVHRVRFFNYVPSGIRCVAYNNQSNRLAVSRTDGTVEIYNLSANYFQEKFFPGHESRATEALCWAEGQRLFSAGLNGEIMEYDLQALNIKYAMDAFGGPIWSMAASPSGSQLLVGCEDGSVKLFQITPDKIQFERNFDRQKSRILSLSWHPSGTHIAAGSIDYISVFDVKSGSAVHKMIVDRQYMGVSKRKCIVWGVAFLSDGTIISVDSAGKVQFWDSATGTLVKSHLIANADVQSIAVADQEDSFVVGTAEGTVFHFQLVPVTSNSSEKQWVRTKPFQHHTHDVRTVAHSPTALISGGTDTHLVFRPLMEKVEVKNYDAALRKITFPHRCLISCSKKRQLLLFQFAHHLELWRLGSTVATGKNGDTLPLSKNADHLLHLKTKGPENIICSCISPCGSWIAYSTVSRFFLYRLNYEHDNISLKRVSKMPAFLRSALQILFSEDSTKLFVASNQGALHIVQLSGGSFKHLHAFQPQSGTVEAMCLLAVSPDGNWLAASGTSAGVHVYNVKQLKLHCTVPAYNFPVTAMAIAPNTNNLVIAHSDQQVFEYSIPDKQYTDWSRTVQKQGFHHLWLQRDTPITHISFHPKRPMHILLHDAYMFCIIDKSLPLPNDKTLLYNPFPPTNESDVIRRRTAHAFKISKIYKPLLFMDLLDERTLVAVERPLDDIIAQLPPPIKKKKFGT	binds
